Data: article PMC3940878
Results are given in words; binding and its absence hold for the method and conditions named. Tags and fused reporters may be left off the sequences shown.

Key:
[1] = biological target: T1, AdipoR1N (aa's 1-70) fused to T25 in vector pKTN25 (plasmid pKTN25-AdipoR1N) (UniProt Q96A54); test: two-hybrid; bacterial adenylate cyclase-based two-hybrid (BACTH) in E. coli BTH101, T18 and T25 fusions, 1 mM IPTG, 18 h, beta-galactosidase activity in Miller units
T1 sequence: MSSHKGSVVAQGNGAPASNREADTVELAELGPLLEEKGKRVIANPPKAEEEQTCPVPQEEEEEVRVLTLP

[2] = biological target: T2, AdipoR1N (aa's 1-70) fused to the C-terminus of T25 (plasmid pKT25-AdipoR1N) (UniProt Q96A54); test: as above
T2 sequence: T1 sequence

“ERp46N (aa's 33-70) fused to the C-terminus of T18 (plasmid pUT18C-ERp46N) (from UniProt Q8NBS9 33-70) (domain or fragment)” was tested, and the binding [1] was “no binding” and the binding [2] was “no binding”.

In the case of “ERp46N (aa's 33-70) with a 34 aa linker, fused to the C-terminus of T18 (plasmid pUT18C-L-ERp46N) (from UniProt Q8NBS9 33-70) (domain or fragment)”, the binding [1] is reported as “no binding” and the binding [2] is reported as “no binding”.
